## Assay results

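Uptake of anthrax lethal toxin into cultured cells, read by FRET (460/530 nm ratio) and reported from the 460 nm channel; the cell line is not named here. Each compound was tested as a concentration series from about 0.0005 to 40 µM. The number is the fitted AC50 of the 460 nm signal alone; lower values mean a more potent effect. A falling signal goes with compounds filed as inhibitors or cytotoxic, a rising one with activators or fluorescent compounds (inferred from the filed classes).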

Values are in nM. Common to all entries: measured here: 460 nm channel. This is a side read-out of the assay, for part of the compounds, not drawn at random. A potency from a partial, single-point or poor curve is only a rough figure. The first word of each remark tells which way the curve ran; it can be opposite to the aim of the assay.

Compound | AC50 (nM) | curve
CC(=O)Oc1ccc2cc(-c3nc4ccccc4n3C)c(=O)oc2c1 | 2512 | rising, full curve
O=C(CC1SCCNC1=O)Nc1cccc(C(F)(F)F)c1 (stereo unspecified) | 100 | falling, full curve, poor fit
Cc1ccc2cc3cc(C(=O)NCCCN4CCc5ccccc5C4)oc3nc2c1 | 12589 | falling, single point
Cc1c(Cl)cccc1NC(=O)c1cc(-c2ccc(O)cc2)on1 | 15848 | falling, partial curve
Cc1ccc(NS(=O)(=O)c2cccc(C(=O)n3ncc(C#N)c3N)c2)c(C)c1 | 5012 | rising, single point
CCOC(=O)c1nc(-c2ccc3c(c2)OCO3)[nH]c1C | 12589 | falling, single point
COc1ccc(CC(=O)NCc2nnc(SCC(=O)N3CCN(c4ccccc4)CC3)n2C)cc1 | 3.981 | falling, full curve
COc1cccc(-n2c(SCC(=O)Nc3cc(C)on3)nc3c([nH]c4ccccc43)c2=O)c1 | 10000 | falling, partial curve, poor fit
CCOC(=O)C1CCCN(C(=O)c2cc3nc(-c4cccc(OC)c4)cc(C(F)(F)F)n3n2)C1 (stereo unspecified) | 15848 | falling, partial curve
O=C(Nc1ccc2c(c1)nc1n2CCOC1)C1CCCCC1 | 794.3 | rising, full curve, poor fit
CC(=O)N1CC2(CC2)CC1c1ccccc1 (stereo unspecified) | 5012 | falling, single point
CCC(CC)C(=O)Nc1cccc(-c2nc3ccccc3o2)c1 | 3981 | falling, single point
O=C(Nc1cccc2nsnc12)c1ccc2c(c1)OCCO2 | 12589 | rising, single point
Cc1ccc(-n2c(SCC(=O)Nc3ccc4c(c3)OCCO4)nnc2-c2ccco2)cc1 | 1585 | falling, partial curve
Oc1c(Cl)cc(Cl)cc1CN1CCN(Cc2ccccc2)CC1 | 10000 | falling, partial curve
C=C(C)[C@H]1Cc2c(ccc3c2O[C@@H]2COc4cc(OC)c(OC)cc4[C@@H]2C3=O)O1 | 12589 | falling, partial curve
COc1ccc(NC(=O)c2ccccc2NC(=O)c2ccco2)c(OC)c1 | 100 | rising, partial curve
CC1CCN(S(=O)(=O)c2ccc3c(c2)oc(=O)n3CC(=O)NCc2ccc3c(c2)OCO3)CC1 | 12589 | falling, partial curve
CCCCCCCC/C=C\CCCCCCCC(N)=O | 31622 | falling, partial curve
CC(C)Oc1cc(O)c2c(=O)c(-c3ccc(O)cc3)coc2c1 | 10000 | falling, single point
Cn1cccc1C(=O)N1CCC[C@@]2(CCN(c3ccccc3)C2)C1 | 15848 | rising, single point
c1ccc(-c2noc(CSc3nnc(Cc4cccs4)n3-c3ccccc3)n2)cc1 | 12589 | falling, partial curve, poor fit
Cc1nn(Cc2ccccc2)c2sc(C(=O)N3CCN(Cc4ccc5c(c4)OCO5)CC3)cc12 | 25118 | falling, single point
Cc1cccc(C)c1NC(=O)C1(N(Cc2ccco2)C(=O)CC2NC(=O)NC2=O)CCCCC1 (stereo unspecified) | 25118 | rising, partial curve
COC(=O)[C@@]1(Cc2ccc(OC)cc2)[C@H]2c3cc(C(=O)N4CCCC4)n(CCc4ccc(O)c(OC)c4)c3C[C@H]2CN1C(=O)c1ccccc1 | 12589 | rising, partial curve
O=C(Nc1ccccc1)N1CCC2(CC1)CCN(C(=O)c1cccc(F)c1)CC2 | 31622 | rising, single point
N#Cc1cccc(-c2nc(NCCN3CCOCC3)c3ccccc3n2)c1 | 3162 | falling, partial curve
O=C(Nc1cc(C(=O)Nc2ccc(S(=O)(=O)O)cc2S(=O)(=O)O)cc(C(=O)Nc2ccc(S(=O)(=O)O)cc2S(=O)(=O)O)c1)Nc1cc(C(=O)Nc2ccc(S(=O)(=O)O)cc2S(=O)(=O)O)cc(C(=O)Nc2ccc(S(=O)(=O)O)cc2S(=O)(=O)O)c1 | 316.2 | falling, full curve, poor fit
O=C(COC(=O)C1c2ccccc2Oc2ccccc21)NC1CCS(=O)(=O)C1 (stereo unspecified) | 25118 | rising, single point
Cc1noc(/C=C/N(C)C)c1S(=O)(=O)N1CCc2ccccc21 | 25118 | falling, single point
CCNC(=O)N1C(CC(=O)OCC)C(=O)NC2CCCCC21 (stereo unspecified) | 1585 | rising, full curve
O=C(Nc1ccc2c(c1)oc1ccccc12)N1CCOCC1 | 12589 | falling, partial curve, poor fit
O=C(COc1ccccc1)Nc1cccc2nsnc12 | 31622 | rising, single point
Cc1cc(OC(=O)c2ccco2)c2c3c(c(=O)oc2c1)CCC3 | 5012 | rising, single point
CCCc1cc(C(=O)Nc2cccc(Cl)c2)no1 | 12589 | falling, single point
O=C(Nc1cccc(-c2nc3ncccc3o2)c1)c1cc2ccccc2o1 | 3162 | falling, full curve
Cc1noc(C)c1C(=O)N1CCC[C@@]2(CCN(c3ccccc3)C2)C1 | 6310 | rising, partial curve
Cc1ccccc1C1=NCC(=O)N(CC(=O)NCc2ccco2)c2sc3c(c21)CCCC3 | 31622 | falling, single point
CC(C)Cc1n[nH]c(=O)[nH]1 | 12589 | falling, partial curve
COc1ccc(CCC(=O)Nc2ccc(-c3noc(-c4ccc(OC)c(OC)c4)n3)cc2)cc1 | 10 | falling, full curve, poor fit
COc1ccc(OC)c(C2SCCN2S(=O)(=O)c2cccc(C(F)(F)F)c2)c1 (stereo unspecified) | 12589 | falling, partial curve
COc1ccc2c(c1)CCc1cc(C(=O)N3CCN(c4ccc(N5CCOCC5)nn4)CC3)sc1-2 | 19952 | falling, partial curve
COc1ccc(Oc2coc3cc(OC(=O)N4CCOCC4)ccc3c2=O)cc1 | 158.5 | falling, full curve
CC(=O)C1=C(C)NC(SCC(=O)c2cc(Cl)ccc2Cl)=C(C#N)C1c1ccco1 (stereo unspecified) | 31622 | falling, single point
Cc1cc2c(c(=O)n1CCN(C)C)C(c1ccc(Cl)cc1)C(C#N)=C(N)O2 (stereo unspecified) | 631 | rising, full curve
COc1ccc(CCNc2nc(C)nc3c2oc2ccccc23)cc1OC | 10000 | falling, partial curve
CCCCN1c2cc(C)c(O)cc2C(C(=O)OCC)C1C (stereo unspecified) | 3162 | rising, single point
Cc1ccc(-c2noc(C3CCN(S(=O)(=O)c4ccc5c(c4)OCCO5)CC3)n2)o1 | 12589 | falling, partial curve
COc1cc2ccc(=O)oc2cc1O | 1585 | rising, partial curve
Cc1cccc(NC(=O)C(C)Oc2ccccc2C)n1 (stereo unspecified) | 19.95 | rising, full curve, poor fit
O=S(=O)(c1ccc(N2CCCC2)cc1)C(F)(F)F | 31622 | falling, single point
Brc1cccc(/C=N\n2cnnc2)c1 | 3.162 | falling, full curve
COc1ccc(OC2C=CC(C#Cc3ccc(C(C)(C)C)cc3)OC2CO)cc1 (stereo unspecified) | 2512 | falling, partial curve
NC(=O)COC(=O)C(Cc1ccccc1)NS(=O)(=O)c1ccccc1F (stereo unspecified) | 3.981 | falling, full curve, poor fit
Cn1c(=O)c(-c2cc(F)cc(F)c2)nc2cnc(N3CCOCC3)nc21 | 7943 | rising, partial curve
O=C(COC(=O)c1cc(-c2ccco2)nc2ccccc12)NCc1ccc2c(c1)OCO2 | 19952 | rising, single point
COC(=O)c1ccc(C2C3=C(Nc4nnnn42)c2ccccc2OC3)cc1 (stereo unspecified) | 10000 | rising, partial curve
O=C(Nc1cccc(F)c1)N1CCCC2(CCNCC2)C1 | 15848 | rising, partial curve
Cc1nc(N)sc1-c1csc(Nc2ccccn2)n1 | 31622 | falling, single point
CCOC(=O)c1csc(NC(=O)CSc2nnnn2-c2ccc(OCC)cc2)n1 | 5012 | rising, single point
COc1cc2c(cc1NC(=O)CN1C(=O)NC3(CCc4ccccc43)C1=O)oc1ccccc12 (stereo unspecified) | 10000 | falling, partial curve
CC1=CC2=C(OC1N(C)C)c1cccc3cccc(c13)C2=O (stereo unspecified) | 12589 | falling, partial curve
c1nc(N2CCNCC2)c2cc(-c3ccoc3)ccc2n1 | 25118 | falling, single point
CC(C)NC[C@H](O)c1ccc(N)c(C#N)c1 | 1259 | falling, full curve, poor fit
COc1ncc2nc(-c3cn(C)c4ccccc34)c(=O)n(CCC#N)c2n1 | 31622 | rising, single point
CNC1=C(Cl)C(=O)c2ccncc2C1=O | 7943 | falling, partial curve

For reference, 6 entries once more:

{"compound": "Cc1noc(/C=C/N(C)C)c1S(=O)(=O)N1CCc2ccccc21", "AC50 (nM)": "25118", "curve": "falling, single point"}
{"compound": "Cc1noc(C)c1C(=O)N1CCC[C@@]2(CCN(c3ccccc3)C2)C1", "AC50 (nM)": "6310", "curve": "rising, partial curve"}
{"compound": "Cc1cc(OC(=O)c2ccco2)c2c3c(c(=O)oc2c1)CCC3", "AC50 (nM)": "5012", "curve": "rising, single point"}
{"compound": "O=C(Nc1cccc(-c2nc3ncccc3o2)c1)c1cc2ccccc2o1", "AC50 (nM)": "3162", "curve": "falling, full curve"}
{"compound": "O=C(Nc1ccc2c(c1)nc1n2CCOC1)C1CCCCC1", "AC50 (nM)": "794.3", "curve": "rising, full curve, poor fit"}
{"compound": "C=C(C)[C@H]1Cc2c(ccc3c2O[C@@H]2COc4cc(OC)c(OC)cc4[C@@H]2C3=O)O1", "AC50 (nM)": "12589", "curve": "falling, partial curve"}

The results are deposited in PubChem (AID912; NCATS, 2007).